Some of the results follow.

Amino acid sequences for entries named in this document (tags omitted).
UniProt Q0JBA9, entry or part of it: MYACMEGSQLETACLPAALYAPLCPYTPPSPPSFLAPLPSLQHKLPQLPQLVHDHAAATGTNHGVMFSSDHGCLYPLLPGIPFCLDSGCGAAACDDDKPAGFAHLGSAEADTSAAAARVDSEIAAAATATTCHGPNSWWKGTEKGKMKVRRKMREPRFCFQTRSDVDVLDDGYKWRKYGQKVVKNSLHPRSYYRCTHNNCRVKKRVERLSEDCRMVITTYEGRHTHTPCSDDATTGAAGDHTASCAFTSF

This assay concerns the target OsWRKY34 (Oryza sativa, UniProt Q0JBA9 1-250). Briefly: protein-binding microarray (RPBM); PBS, 2% BSA, 51.3 ng/ul salmon testes DNA, 50 uM zinc acetate, 200 nM TF, 25 C, 1 h; high values mean tight binding. The conditions noted are these: protein: recombinant; tags: N-terminal polyhistidine and DsRed monomer fusion (pET32a); label: CyDye5-dUTP incorporated in the synthesized complementary strand; 3' TTTTT single-stranded linker to array surface; dsDNA, one strand shown. The procedure, abridged:
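Binding signal is reported as fluorescence intensity per feature (arbitrary units) from an Axon 4000B scanner. Incubation used 200 nM of each Ni–NTA-purified, N-terminally polyhistidine- and DsRed-fused transcription factor from E. coli BL21-CodonPlus on a double-stranded custom Agilent array for 1 h at 25 °C, with 50 µM zinc acetate in the buffer, followed by washing.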
With “TCTTCTGGTTTCCATGTTTTTTCCCTAATGATTAGCCTCTCGGAGTCACCTAGTGCAG”, the binding signal was 8830 fluorescence intensity (a.u.).

On to “GTAGACCGCCTACTATAATCTCCTCCGCCGCCGCACCTCGCGGAGTCACCTAGTGCAG”, for which the binding signal is 9460 fluorescence intensity (a.u.).

Turning to “TATGTGCGATCATTGCGTGTGTGCTGATTTTCGGGGAGGACGGAGTCACCTAGTGCAG”, the binding signal was 10300 fluorescence intensity (a.u.).

As to “ATTGTGGCTGTTTTCTTCCTCTCCAGCTTCCAATCTGATCCGGAGTCACCTAGTGCAG”, the binding signal is 8140 fluorescence intensity (a.u.).

For the sequence “GTACGTGAATTTTTATCATCTTTTGTCCTTTCATCTCATACGGAGTCACCTAGTGCAG”, the binding signal is 9760 fluorescence intensity (a.u.).

“GGGGCGTGAATTAGATTTAACCTATATATCGGGGAGTCTACGGAGTCACCTAGTGCAG”: the binding signal was 8750 fluorescence intensity (a.u.).

Consider “TTGATTTTTTGACCTCGATCCACCATCGTCGACCTTGATCCGGAGTCACCTAGTGCAG”, for which the binding signal was 8450 fluorescence intensity (a.u.).

Regarding “TATTACCTTTGTTTTTTATGATTTTTTTATAATATTTGATCGGAGTCACCTAGTGCAG”, the binding signal was 8680 fluorescence intensity (a.u.).

As to “CGTTTTTGTGTCATAACCGTCATAACGTTTCCGCTCCTGACGGAGTCACCTAGTGCAG”, the binding signal was 12300 fluorescence intensity (a.u.).

Take “AACTTTTTCTATGCTTTCCTTGTTAGTACTAGTTTCTGATCGGAGTCACCTAGTGCAG”: the binding signal is 10900 fluorescence intensity (a.u.).

Consider “TGTCTCACCTGTGTGCTATGACCACCAACCTGTCTGTCTCCGGAGTCACCTAGTGCAG”, for which the binding signal is 9080 fluorescence intensity (a.u.).

As to “TTTGTCTAGGCTTATGTCAATGTGTTATTGGTTTTGTCTTCGGAGTCACCTAGTGCAG”, the binding signal is 10500 fluorescence intensity (a.u.).

As to “CTTCACCACCACGGGATACACGCTGCTCCACAACTTCAGCCGGAGTCACCTAGTGCAG”, the binding signal was 10300 fluorescence intensity (a.u.).

Regarding “GGCAACCCAACCGATTCGCGCTCACGCCACCTGCAATCCGCGGAGTCACCTAGTGCAG”, the binding signal was 8880 fluorescence intensity (a.u.).

With “TGCTCTACGAGTAAATGGCTTTGTTCTTTATTTTTGCTAACGGAGTCACCTAGTGCAG”, the binding signal is 8040 fluorescence intensity (a.u.).

For “TTTCCCCGCCCACCGGTCAAACCGGTCACCCTCCCCACTACGGAGTCACCTAGTGCAG”, the binding signal was 8290 fluorescence intensity (a.u.).

For “GTTTGATTATTTGCTGCCTCCAGTGGGTTGGGTGTTCTTGCGGAGTCACCTAGTGCAG”, the binding signal was 8340 fluorescence intensity (a.u.).

Turning to “CGCTCTTGAGTCTTGACTTTCTCTGCCACGAGAGCTCATCCGGAGTCACCTAGTGCAG”, the binding signal is 8470 fluorescence intensity (a.u.).

Consider “GATTGACGAAGTTACCATGGACGTCTTACTGTTGACTGCGCGGAGTCACCTAGTGCAG”, for which the binding signal was 8780 fluorescence intensity (a.u.).

Take “GCCTCTCTCTCTCTCTCTCTCTCTCTCTCTCTTTCTCCGACGGAGTCACCTAGTGCAG”: the binding signal was 9660 fluorescence intensity (a.u.).

On to “ATATCCCACAGCTAATTACATATATTTTTTTAATATCCTACGGAGTCACCTAGTGCAG”, for which the binding signal was 8170 fluorescence intensity (a.u.).

Take “TTAGGGTGAATGATGATTGGTTTTCTGGTTTATGGGGTAACGGAGTCACCTAGTGCAG”: the binding signal was 11600 fluorescence intensity (a.u.).

With “GCTCTCTCTTCTCAACTATGAACCCTATTCCACGAAAGCACGGAGTCACCTAGTGCAG”, the binding signal was 10800 fluorescence intensity (a.u.).

On to “CTAGCCGCCCGCGCCGCCACCTCGCCGGCCTCTAGCCGCCCGGAGTCACCTAGTGCAG”, for which the binding signal was 8230 fluorescence intensity (a.u.).

In the case of “CTCTCTCTCTCTCTCTCTCTTTCTCTTTAGTTAATTATATCGGAGTCACCTAGTGCAG”, the binding signal is 12800 fluorescence intensity (a.u.).

“TCCCAAGCATTCGTTTTTATAGCCTCACCACAGCTCAAAACGGAGTCACCTAGTGCAG”: the binding signal was 8960 fluorescence intensity (a.u.).

Turning to “CTGTCTGGTACTTGGTTGACTCTTGCACCTGCTCCATGACCGGAGTCACCTAGTGCAG”, the binding signal is 8880 fluorescence intensity (a.u.).

“TACCACGTCGTCTTCTCTTCTCTATCTTCTCCGCCTCCGGCGGAGTCACCTAGTGCAG”: the binding signal is 11400 fluorescence intensity (a.u.).

For “CACCACACCAACCGCACCAACCCCAACCCCGCGCGCGCTCCGGAGTCACCTAGTGCAG”, the binding signal is 8120 fluorescence intensity (a.u.).

In the case of “TTTGCTGCATCACCATTGTCATCCATATATTCCATATTCCCGGAGTCACCTAGTGCAG”, the binding signal was 8490 fluorescence intensity (a.u.).

As to “TTTGTGTACATGTTTCGAGACTTTTGCATTTCTATTTTTCCGGAGTCACCTAGTGCAG”, the binding signal was 11900 fluorescence intensity (a.u.).

“TCGGGCAGGAGGAGGAAGTTGGGTGGTGGGGACGATTCCGCGGAGTCACCTAGTGCAG”: the binding signal was 8710 fluorescence intensity (a.u.).

On to “GTACTTTACGCACAACTTTTTATTTTTTATATTTGCATAACGGAGTCACCTAGTGCAG”, for which the binding signal is 8300 fluorescence intensity (a.u.).

Take “GCCAGCGAGCTGTGTTTCTTTTTTGGTGGTTCTTGTATTTCGGAGTCACCTAGTGCAG”: the binding signal was 9320 fluorescence intensity (a.u.).

With “TTTTTTTTCTGACTTTTCTTTTTTTCTTTTTCCCTGTTTTCGGAGTCACCTAGTGCAG”, the binding signal was 8700 fluorescence intensity (a.u.).

For the sequence “TGGCACTCACCTCACCACACACCACTCCACCATCACTCACCGGAGTCACCTAGTGCAG”, the binding signal is 13800 fluorescence intensity (a.u.).

For “CCATCACTTTACCCAGTAATCCACACTAGATATTTATTTTCGGAGTCACCTAGTGCAG”, the binding signal is 8260 fluorescence intensity (a.u.).

Consider “ATCACCACCACCACCACCACCCGCACGCGCGCCGCAACAACGGAGTCACCTAGTGCAG”, for which the binding signal is 9580 fluorescence intensity (a.u.).

On to “TATGTGCTCTTTCTATTCTTTCATTTTTTATTTCATTATTCGGAGTCACCTAGTGCAG”, for which the binding signal is 9290 fluorescence intensity (a.u.).

In the case of “TGTATTTCAATCGGTTTTAAATTCGTTCGCTTTTGGAAATCGGAGTCACCTAGTGCAG”, the binding signal is 8480 fluorescence intensity (a.u.).

For the sequence “ATGTTGTGACACGCTATATATTTTTCTTGTTCATATTCAACGGAGTCACCTAGTGCAG”, the binding signal was 8190 fluorescence intensity (a.u.).

For the sequence “TTGTGGTTATAGGGCTTGTTTGGTTCTTTACCCTACCAATCGGAGTCACCTAGTGCAG”, the binding signal is 8490 fluorescence intensity (a.u.).

These data come from PMC7819943, “Rice protein-binding microarrays: a tool to detect cis-acting elements near promoter regions in rice”.
